{"source": "patent US11241441B2", "about": "“Formulations of lixivaptan for the treatment of polycystic disease” (PALLADIO BIOSCIENCES, INC., priority 2017, dated 2022)", "system": "PCK rats", "assay": "In vivo study of the effects of lixivaptan on PCK rats", "design": "species or system rat", "conditions": "for Body Weight: 8 weeks", "protocol": "A study was performed that examined the effect of lixivaptan (0.5% or 1% w/w lixivaptan in ground rodent chow) on bodyweight, kidney weight, kidney cAMP, urine output, and serum electrolyte concentration in PCK rats, an orthologous animal model of Autosomal Recessive PKD that develops a phenotype reminiscent of ADPKD.\nExperimental animals and study design. PCK rats were divided into control and treatment groups at four weeks of age (n=59, ˜10 animals per treatment group and gender). Lixivaptan was dissolved in DMSO and added to ground rodent chow (Regrind Labdiet 5053) at 0.5% or 1.0% concentration (w/w) by homogenous mixing, whereas control animals received the same diet without lixivaptan. Animals were exposed to control- or lixivaptan-diet for eight weeks and were sacrificed at twelve weeks of age.\nExperimental Protocol. […] At the end of the dosing period, the animals were weighed and anesthetized with ketamine 90 mg/kg and xylazine 10 mg/kg, IP. Blood samples were obtained by cardiac puncture for determination of plasma electrolytes, creatinine and plasma urea levels. The right kidney and part of the liver were placed into pre-weighed vials containing 10% formaldehyde in phosphate buffer (pH 7.4). The tissues were embedded in paraffin for histological studies. The left kidneys were immediately frozen in liquid nitrogen for determination of cAMP.\nStatistical Analysis. Comparisons between groups were analyzed using one-way or two-way analysis of variance (ANOVA) with least significant difference comparisons of the means or student's t-test as appropriate. Data were expressed as means±SD."}
{"molecule": "Cc1ccc(F)cc1C(=O)Nc1ccc(C(=O)N2Cc3cccn3Cc3ccccc32)c(Cl)c1", "note": "[Lixivaptan, 5-fluoro-2-methyl-N-[4-(5H-pyrrolo[2,1-C] [1,4]benzodiazepin-10(11H)-ylcarbonyl)-3-chlorophenyl]benzamide]", "values": [{"measurement": "Plasma Potassium", "setting": "PCK rats F, 0.5% Lixivaptan", "value": "6.0 ± 0.9", "unit": "mEq/L"}, {"measurement": "Body Weight", "setting": "PCK rats F, 0.5% Lixivaptan in chow", "value": "254 ± 13", "unit": "g"}, {"measurement": "Plasma Potassium", "setting": "PCK rats F, 1.0% Lixivaptan", "value": "6.9 ± 0.9", "unit": "mEq/L"}, {"measurement": "Body Weight", "setting": "PCK rats F, 1.0% Lixivaptan in chow", "value": "236 ± 26", "unit": "g"}, {"measurement": "Plasma Potassium", "setting": "PCK rats M, 0.5% Lixivaptan", "value": "6.3 ± 0.42", "unit": "mEq/L"}, {"measurement": "Body Weight", "setting": "PCK rats M, 0.5% Lixivaptan in chow", "value": "434 ± 24", "unit": "g"}, {"measurement": "Plasma Potassium", "setting": "PCK rats M, 1.0% Lixivaptan", "value": "6.1 ± 0.9", "unit": "mEq/L"}, {"measurement": "Body Weight", "setting": "PCK rats M, 1.0% Lixivaptan in chow", "value": "403 ± 33", "unit": "g"}]}
